What follows is the remainder of the data, with few or none of the targets with a hit. This is a noisy data set. This is a selection; strong and weak results do not stand in their true shares.
Compound: COC(=O)/C=C/c1ccccc1 [methyl cinnamate]
Assay: log2 ratio of iodoacetamide-alkyne labeling of the cysteine site, DMSO over compound (competition); higher = stronger covalent engagement of the cysteine by the compound, active = 1 or more
Conditions: 500 µM; treatment time 1 h; system: HEK293T cell lysate
How it was run: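 After 1 h at ambient temperature with vehicle or electrophile (500 µM), HEK293T lysate (2 mg/mL) was labelled for 1 h with iodoacetamide alkyne and clicked to sCIP-TMT reagents. Pooled samples were trypsin-digested overnight at 37 °C, streptavidin-enriched, acid-eluted and analysed by Orbitrap Eclipse LC-MS/MS with FAIMS, then quantified in FragPipe over three replicates with duplicate channels. A cysteine's log2 competition ratio is its mean control-channel over mean compound-channel reporter intensity. Cysteines quantified in only one replicate were not included.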

Sequences of proteins named here, by UniProt entry; tags and fusion partners are left off. A change or cut given only in a name is not applied to a line headed by its entry.
UniProt Q2TAA2: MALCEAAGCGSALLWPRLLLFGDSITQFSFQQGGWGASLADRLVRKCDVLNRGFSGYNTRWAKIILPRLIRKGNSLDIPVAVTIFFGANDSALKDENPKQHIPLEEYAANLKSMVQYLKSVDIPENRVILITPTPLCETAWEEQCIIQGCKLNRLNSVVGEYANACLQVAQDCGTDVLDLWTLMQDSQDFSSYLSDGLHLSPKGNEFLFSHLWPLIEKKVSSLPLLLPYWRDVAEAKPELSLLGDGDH
UniProt Q15032: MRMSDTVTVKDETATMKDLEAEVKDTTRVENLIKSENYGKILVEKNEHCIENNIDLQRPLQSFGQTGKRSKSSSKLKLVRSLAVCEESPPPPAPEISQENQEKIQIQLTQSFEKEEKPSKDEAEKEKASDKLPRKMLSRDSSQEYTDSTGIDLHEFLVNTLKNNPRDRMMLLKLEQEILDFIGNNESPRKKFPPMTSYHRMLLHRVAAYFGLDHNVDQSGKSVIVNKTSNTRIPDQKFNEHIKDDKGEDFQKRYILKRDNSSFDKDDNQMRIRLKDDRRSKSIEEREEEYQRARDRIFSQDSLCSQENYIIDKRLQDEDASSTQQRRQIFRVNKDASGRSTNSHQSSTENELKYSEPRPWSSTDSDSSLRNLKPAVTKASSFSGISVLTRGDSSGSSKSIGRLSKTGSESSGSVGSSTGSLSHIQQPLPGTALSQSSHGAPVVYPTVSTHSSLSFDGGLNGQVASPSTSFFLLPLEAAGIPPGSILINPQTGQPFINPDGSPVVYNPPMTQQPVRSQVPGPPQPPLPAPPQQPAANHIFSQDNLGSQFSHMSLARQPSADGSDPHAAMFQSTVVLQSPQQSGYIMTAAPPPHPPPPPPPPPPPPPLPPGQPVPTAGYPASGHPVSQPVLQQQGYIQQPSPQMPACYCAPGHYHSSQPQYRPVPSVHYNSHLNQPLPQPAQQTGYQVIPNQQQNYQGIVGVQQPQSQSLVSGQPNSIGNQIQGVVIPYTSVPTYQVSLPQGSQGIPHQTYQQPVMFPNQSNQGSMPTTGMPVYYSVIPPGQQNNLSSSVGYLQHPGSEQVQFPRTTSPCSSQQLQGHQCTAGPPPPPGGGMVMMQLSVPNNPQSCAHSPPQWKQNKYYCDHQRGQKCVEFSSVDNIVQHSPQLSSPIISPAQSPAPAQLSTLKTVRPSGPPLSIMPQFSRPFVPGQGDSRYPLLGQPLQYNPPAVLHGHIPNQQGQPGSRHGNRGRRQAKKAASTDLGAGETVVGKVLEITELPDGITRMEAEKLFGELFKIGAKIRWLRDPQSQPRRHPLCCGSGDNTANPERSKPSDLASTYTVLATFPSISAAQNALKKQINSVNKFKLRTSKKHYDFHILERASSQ
UniProt Q15750: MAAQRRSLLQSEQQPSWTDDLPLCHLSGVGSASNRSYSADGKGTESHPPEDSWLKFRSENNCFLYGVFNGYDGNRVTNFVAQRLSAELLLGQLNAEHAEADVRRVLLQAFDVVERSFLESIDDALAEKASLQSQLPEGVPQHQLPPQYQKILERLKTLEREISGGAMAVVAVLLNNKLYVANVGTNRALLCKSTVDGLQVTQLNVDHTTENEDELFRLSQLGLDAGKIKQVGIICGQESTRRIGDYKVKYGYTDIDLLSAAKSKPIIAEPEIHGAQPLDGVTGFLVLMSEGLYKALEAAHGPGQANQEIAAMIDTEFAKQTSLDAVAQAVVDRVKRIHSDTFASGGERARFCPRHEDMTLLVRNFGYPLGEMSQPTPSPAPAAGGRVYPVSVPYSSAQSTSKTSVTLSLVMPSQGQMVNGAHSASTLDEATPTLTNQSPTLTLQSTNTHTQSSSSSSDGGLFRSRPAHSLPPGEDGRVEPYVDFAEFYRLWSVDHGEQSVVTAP
UniProt Q15208: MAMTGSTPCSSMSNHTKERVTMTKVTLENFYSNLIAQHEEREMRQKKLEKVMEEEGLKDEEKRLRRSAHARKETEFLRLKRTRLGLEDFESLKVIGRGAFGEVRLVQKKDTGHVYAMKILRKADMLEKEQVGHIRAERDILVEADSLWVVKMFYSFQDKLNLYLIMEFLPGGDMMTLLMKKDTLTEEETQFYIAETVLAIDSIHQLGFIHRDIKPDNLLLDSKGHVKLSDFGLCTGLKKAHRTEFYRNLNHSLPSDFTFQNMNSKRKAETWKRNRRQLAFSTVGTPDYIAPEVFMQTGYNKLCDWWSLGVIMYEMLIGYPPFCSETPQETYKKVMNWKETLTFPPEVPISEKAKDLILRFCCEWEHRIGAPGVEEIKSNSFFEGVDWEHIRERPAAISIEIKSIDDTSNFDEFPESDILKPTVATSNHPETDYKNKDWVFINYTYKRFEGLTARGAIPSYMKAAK
UniProt Q16527: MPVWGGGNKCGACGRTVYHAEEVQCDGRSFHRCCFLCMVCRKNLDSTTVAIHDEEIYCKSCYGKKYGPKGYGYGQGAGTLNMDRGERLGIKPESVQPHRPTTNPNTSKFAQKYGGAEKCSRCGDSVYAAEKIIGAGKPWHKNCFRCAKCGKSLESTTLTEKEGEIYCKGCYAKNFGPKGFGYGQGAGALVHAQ
UniProt Q15366, whole entry, looked up: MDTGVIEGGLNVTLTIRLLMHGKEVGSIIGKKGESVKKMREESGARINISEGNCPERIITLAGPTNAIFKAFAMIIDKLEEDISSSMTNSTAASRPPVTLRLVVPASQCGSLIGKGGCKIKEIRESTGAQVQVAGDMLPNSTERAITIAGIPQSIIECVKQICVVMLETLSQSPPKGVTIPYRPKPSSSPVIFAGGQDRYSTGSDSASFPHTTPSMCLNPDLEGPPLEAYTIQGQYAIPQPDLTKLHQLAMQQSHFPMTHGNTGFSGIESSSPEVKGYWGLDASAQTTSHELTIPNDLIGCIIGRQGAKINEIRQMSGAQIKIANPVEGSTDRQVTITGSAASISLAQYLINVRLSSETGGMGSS
UniProt Q16630, whole entry: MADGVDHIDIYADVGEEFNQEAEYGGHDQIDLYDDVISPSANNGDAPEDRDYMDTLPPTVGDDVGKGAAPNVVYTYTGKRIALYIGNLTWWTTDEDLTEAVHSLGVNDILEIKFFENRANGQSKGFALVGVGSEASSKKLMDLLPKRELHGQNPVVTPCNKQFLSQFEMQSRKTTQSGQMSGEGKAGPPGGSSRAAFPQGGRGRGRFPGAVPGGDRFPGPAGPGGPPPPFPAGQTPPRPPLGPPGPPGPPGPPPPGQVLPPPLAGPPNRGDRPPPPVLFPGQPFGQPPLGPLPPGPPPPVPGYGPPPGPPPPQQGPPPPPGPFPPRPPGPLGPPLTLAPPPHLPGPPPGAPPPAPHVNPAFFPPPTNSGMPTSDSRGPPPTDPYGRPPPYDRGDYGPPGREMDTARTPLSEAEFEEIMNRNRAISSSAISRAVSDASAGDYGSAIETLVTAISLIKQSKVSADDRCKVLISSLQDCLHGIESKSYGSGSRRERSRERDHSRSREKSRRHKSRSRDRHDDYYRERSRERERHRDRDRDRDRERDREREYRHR
UniProt Q4VC44: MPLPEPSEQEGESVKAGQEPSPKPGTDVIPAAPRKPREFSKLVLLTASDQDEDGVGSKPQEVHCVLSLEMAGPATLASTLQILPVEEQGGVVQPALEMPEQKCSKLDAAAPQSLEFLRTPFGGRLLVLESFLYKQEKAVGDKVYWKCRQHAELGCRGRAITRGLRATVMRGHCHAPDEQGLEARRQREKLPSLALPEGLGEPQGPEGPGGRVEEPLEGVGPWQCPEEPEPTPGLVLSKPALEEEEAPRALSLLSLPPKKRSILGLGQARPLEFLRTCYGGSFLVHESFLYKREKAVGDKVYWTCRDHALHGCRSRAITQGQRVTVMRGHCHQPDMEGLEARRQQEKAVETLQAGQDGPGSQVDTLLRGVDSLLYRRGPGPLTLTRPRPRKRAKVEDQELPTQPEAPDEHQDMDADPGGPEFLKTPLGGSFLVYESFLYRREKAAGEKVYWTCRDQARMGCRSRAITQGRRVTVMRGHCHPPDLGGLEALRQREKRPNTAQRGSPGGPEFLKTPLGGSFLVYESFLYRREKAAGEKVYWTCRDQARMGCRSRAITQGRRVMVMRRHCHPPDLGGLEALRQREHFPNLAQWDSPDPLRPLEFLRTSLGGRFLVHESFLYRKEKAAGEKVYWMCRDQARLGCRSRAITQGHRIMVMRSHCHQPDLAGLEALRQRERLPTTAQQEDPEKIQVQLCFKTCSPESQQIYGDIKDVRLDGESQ
UniProt Q15084: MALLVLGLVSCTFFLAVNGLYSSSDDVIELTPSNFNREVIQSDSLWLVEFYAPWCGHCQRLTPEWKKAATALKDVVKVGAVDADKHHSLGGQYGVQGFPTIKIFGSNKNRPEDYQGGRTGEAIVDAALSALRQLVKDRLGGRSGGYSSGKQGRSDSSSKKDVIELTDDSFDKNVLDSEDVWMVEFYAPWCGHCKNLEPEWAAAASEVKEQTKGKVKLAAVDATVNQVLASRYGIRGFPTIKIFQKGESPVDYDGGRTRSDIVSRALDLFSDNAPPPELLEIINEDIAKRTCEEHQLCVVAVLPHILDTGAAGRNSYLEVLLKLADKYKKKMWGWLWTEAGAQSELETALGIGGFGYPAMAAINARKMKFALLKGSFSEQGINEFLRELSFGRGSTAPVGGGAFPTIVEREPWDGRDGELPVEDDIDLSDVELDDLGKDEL
UniProt Q15102: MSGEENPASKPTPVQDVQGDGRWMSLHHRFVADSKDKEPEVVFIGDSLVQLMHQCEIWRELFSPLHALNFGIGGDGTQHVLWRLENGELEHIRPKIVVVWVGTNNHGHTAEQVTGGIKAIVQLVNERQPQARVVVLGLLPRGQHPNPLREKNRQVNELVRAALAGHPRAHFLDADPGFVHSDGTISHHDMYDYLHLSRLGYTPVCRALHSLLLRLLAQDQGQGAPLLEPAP
UniProt Q1KMD3: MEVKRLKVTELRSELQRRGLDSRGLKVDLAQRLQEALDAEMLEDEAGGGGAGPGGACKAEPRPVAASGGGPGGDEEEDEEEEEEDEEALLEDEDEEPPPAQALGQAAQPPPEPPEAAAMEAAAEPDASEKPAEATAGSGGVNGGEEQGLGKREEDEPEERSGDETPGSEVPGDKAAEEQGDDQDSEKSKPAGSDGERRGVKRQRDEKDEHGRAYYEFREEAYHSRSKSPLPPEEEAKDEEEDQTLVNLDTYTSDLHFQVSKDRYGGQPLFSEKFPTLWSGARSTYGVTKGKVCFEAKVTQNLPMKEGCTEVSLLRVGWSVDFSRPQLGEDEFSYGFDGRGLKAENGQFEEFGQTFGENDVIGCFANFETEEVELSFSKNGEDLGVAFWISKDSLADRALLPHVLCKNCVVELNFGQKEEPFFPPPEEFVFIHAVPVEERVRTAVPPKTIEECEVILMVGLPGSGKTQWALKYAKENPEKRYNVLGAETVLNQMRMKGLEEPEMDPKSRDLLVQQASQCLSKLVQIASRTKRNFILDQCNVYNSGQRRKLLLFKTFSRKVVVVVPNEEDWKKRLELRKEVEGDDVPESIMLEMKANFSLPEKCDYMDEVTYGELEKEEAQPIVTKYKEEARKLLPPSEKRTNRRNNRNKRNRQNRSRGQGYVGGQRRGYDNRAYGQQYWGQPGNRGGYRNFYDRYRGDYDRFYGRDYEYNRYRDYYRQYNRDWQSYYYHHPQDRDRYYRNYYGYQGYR
UniProt Q15276: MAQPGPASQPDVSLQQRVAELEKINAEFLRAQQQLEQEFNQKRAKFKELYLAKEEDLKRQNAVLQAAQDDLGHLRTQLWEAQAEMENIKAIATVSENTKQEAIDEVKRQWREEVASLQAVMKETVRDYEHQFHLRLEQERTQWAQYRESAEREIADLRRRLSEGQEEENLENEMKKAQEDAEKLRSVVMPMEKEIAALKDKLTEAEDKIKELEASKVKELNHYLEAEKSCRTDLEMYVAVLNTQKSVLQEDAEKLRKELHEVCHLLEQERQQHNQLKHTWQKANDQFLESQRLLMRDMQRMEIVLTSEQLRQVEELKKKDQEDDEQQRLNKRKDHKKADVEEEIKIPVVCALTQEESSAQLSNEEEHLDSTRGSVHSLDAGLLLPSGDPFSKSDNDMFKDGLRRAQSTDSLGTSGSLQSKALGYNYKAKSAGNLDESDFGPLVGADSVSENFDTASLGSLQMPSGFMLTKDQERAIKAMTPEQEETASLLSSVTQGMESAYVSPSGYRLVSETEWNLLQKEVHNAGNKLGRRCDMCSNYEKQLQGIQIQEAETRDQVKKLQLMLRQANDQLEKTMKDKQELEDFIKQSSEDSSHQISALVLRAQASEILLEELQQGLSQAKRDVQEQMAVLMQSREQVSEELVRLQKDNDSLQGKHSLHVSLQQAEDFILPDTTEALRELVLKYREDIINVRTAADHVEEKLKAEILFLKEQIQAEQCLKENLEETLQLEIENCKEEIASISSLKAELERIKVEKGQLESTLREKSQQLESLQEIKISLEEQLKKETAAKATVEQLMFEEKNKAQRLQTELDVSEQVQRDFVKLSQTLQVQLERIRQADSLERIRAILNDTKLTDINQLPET
UniProt Q4VC31: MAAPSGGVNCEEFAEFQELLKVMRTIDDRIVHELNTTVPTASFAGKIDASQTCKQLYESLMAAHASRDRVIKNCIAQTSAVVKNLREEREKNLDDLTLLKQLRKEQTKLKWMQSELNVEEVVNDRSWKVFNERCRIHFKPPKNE

log2 ratio of iodoacetamide-alkyne labeling, inactive:
ATG2A C1870 (UniProt Q2TAZ0) 0.057
IAH1 C4 (UniProt Q2TAA2) 0.429
MED1 C443 (UniProt Q15648) 0.242
R3HDM1 C304 (UniProt Q15032) -0.117
PDS5A C532 (UniProt Q29RF7) 0.115
UniProt Q15750_C24 0.0964
UniProt Q15208_C9 0.343
CSRP2 C58 (UniProt Q16527) 0.0655
FASTKD1 C46 (UniProt Q53R41) 0.228
PCBP2 C217 (UniProt Q15366) 0.303
UniProt Q15475_C130 0.269
UniProt Q15042_C678 -0.142
UniProt Q15042_C873 0.0505
PDS5A C589 (UniProt Q29RF7) 0.183
CPSF6 C159 (UniProt Q16630) 0.243
UBE2S C118 (UniProt Q16763) -0.0948
UniProt Q1ED39_C172 0.245
FLYWCH1 C173 (UniProt Q4VC44) -0.052
FAM98B C295 (UniProt Q52LJ0) 0.586
LRRFIP1 C14 (UniProt Q32MZ4) 0.147
UGP2 C123 (UniProt Q16851) 0.283
PDIA6 C190 (UniProt Q15084) -0.00875
PAFAH1B3 C205 (UniProt Q15102) 0.28
HNRNPUL2 C408 (UniProt Q1KMD3) -0.11
SF1 C292 (UniProt Q15637) 0.165
UniProt Q15370_C89 -0.379
UniProt Q15365_C163 0.0924
RABEP1 C533 (UniProt Q15276) 0.12
LACTB2 C100 (UniProt Q53H82) 0.153
AKIRIN2 C3 (UniProt Q53H80) 0.244
C5orf22 C195 (UniProt Q49AR2) 0.357
CCDC58 C74 (UniProt Q4VC31) 0.325
HNRNPUL2 C602 (UniProt Q1KMD3) 0.376
PPA1 C242 (UniProt Q15181) 0.0976
CCDC93 C282 (UniProt Q567U6) -0.0896
PTGES3 C58 (UniProt Q15185) 0.231
AP5B1 C800 (UniProt Q2VPB7) 0.604

Reference: the supplement of paper PMC11006884
